In the supplement of paper PMC10849652:
Some of the results follow.

Chains of the proteins cited; added tags and fusions are not shown. Lines headed by an entry give the natural chain unless they say otherwise; changes in a name come on top.
UniProt Q96LZ7: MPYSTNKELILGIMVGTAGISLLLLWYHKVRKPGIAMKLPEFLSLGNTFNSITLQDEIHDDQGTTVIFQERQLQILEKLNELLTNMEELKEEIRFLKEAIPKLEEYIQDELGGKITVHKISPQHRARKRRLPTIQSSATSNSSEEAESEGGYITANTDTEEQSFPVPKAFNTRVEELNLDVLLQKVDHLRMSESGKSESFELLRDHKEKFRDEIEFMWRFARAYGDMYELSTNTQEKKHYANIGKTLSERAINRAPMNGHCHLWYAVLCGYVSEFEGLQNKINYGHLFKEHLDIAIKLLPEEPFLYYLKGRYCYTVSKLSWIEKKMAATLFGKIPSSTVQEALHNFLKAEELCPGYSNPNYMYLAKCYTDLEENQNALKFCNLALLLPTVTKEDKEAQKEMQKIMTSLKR
UniProt Q6PCD5: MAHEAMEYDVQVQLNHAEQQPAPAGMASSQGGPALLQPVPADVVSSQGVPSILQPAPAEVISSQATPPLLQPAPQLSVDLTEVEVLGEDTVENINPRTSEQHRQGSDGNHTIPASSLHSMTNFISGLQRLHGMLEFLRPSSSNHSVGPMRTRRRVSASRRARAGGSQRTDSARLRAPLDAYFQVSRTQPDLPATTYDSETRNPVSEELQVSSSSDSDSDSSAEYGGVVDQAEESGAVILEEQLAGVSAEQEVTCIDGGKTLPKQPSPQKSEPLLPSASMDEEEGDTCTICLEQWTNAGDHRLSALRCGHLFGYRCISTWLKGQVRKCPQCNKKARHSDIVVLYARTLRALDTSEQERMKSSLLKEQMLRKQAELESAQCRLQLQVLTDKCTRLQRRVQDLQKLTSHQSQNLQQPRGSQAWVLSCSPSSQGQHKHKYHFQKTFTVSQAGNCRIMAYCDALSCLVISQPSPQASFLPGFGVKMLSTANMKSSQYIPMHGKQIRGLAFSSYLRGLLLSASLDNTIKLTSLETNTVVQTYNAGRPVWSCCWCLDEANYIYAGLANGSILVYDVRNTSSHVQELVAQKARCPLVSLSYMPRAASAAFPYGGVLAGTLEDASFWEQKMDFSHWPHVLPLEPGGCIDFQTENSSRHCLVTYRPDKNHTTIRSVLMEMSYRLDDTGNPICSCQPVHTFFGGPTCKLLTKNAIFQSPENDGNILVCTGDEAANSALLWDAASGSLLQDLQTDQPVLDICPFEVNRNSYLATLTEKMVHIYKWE
UniProt Q9Y225: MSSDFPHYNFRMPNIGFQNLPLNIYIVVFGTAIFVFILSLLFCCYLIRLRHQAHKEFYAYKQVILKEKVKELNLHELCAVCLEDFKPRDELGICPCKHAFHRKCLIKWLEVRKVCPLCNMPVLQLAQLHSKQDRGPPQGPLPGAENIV
UniProt Q15493: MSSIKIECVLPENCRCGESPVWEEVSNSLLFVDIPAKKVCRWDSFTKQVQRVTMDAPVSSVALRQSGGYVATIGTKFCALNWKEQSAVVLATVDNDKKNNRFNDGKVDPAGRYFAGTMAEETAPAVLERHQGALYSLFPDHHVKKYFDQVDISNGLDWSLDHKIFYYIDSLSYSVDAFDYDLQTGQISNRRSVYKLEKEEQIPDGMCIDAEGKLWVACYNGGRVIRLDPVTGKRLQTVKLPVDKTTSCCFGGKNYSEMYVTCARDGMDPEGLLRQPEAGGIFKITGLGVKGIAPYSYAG
UniProt Q8WU17: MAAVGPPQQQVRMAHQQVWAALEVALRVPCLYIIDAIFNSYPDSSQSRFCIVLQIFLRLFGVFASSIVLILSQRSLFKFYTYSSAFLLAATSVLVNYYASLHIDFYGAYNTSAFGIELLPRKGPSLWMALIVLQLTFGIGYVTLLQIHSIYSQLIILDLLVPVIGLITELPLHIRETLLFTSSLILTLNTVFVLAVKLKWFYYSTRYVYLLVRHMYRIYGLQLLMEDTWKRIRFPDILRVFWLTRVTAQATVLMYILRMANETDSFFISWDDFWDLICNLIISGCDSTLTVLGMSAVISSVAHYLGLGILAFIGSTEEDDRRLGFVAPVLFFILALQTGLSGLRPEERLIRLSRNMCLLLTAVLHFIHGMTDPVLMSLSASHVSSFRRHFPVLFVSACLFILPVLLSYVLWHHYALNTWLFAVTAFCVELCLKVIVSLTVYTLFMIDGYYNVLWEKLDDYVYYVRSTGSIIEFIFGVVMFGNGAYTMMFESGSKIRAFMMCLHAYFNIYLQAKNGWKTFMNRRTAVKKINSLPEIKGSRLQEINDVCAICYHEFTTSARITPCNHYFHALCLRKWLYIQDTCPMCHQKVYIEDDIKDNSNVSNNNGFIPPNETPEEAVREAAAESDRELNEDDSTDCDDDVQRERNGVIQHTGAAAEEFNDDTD
UniProt Q06587: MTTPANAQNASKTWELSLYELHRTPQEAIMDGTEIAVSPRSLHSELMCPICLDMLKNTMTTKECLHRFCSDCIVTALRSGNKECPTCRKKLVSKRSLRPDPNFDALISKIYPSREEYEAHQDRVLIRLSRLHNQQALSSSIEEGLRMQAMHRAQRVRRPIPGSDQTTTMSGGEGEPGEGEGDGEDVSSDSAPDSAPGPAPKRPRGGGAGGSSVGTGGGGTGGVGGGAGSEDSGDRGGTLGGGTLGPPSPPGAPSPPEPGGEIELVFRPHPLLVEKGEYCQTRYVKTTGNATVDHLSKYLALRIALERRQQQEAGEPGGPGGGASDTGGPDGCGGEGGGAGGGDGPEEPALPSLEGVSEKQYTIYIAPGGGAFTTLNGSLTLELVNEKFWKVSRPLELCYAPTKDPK
UniProt O94762: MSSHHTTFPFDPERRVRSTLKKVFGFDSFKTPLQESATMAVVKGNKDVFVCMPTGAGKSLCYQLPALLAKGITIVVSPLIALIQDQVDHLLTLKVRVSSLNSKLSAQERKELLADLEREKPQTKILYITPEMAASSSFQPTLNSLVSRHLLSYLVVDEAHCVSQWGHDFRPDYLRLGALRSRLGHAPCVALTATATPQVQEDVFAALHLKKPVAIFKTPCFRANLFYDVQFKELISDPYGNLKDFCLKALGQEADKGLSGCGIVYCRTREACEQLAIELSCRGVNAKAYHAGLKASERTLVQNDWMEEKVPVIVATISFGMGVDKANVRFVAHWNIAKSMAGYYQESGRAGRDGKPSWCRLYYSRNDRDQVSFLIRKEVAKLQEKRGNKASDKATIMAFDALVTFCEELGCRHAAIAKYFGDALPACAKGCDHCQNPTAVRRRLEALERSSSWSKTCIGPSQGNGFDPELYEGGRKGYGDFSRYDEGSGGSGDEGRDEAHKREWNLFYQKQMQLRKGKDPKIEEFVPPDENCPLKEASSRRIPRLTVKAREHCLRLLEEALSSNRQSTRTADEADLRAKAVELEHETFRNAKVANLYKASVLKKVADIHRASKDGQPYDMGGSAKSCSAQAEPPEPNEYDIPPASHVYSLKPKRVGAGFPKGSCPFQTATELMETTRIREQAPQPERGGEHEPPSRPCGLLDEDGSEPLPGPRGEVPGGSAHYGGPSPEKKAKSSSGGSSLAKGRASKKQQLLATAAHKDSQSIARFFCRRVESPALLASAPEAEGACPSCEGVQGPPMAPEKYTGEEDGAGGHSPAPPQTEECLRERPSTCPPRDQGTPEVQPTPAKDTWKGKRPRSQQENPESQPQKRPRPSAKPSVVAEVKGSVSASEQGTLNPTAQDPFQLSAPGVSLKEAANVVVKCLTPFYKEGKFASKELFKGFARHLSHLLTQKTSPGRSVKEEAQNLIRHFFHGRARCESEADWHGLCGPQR
UniProt P34096: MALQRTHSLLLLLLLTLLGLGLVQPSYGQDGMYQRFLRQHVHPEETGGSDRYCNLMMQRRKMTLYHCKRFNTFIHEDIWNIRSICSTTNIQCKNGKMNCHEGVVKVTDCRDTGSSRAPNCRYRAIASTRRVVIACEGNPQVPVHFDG
UniProt Q96K19: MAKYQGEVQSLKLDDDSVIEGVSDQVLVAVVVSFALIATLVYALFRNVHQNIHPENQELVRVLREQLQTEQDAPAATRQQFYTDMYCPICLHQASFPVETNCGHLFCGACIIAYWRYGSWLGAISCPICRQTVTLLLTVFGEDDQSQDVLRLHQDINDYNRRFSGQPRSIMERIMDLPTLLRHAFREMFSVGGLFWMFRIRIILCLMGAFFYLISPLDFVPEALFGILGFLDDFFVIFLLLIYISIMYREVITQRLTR
UniProt O43566: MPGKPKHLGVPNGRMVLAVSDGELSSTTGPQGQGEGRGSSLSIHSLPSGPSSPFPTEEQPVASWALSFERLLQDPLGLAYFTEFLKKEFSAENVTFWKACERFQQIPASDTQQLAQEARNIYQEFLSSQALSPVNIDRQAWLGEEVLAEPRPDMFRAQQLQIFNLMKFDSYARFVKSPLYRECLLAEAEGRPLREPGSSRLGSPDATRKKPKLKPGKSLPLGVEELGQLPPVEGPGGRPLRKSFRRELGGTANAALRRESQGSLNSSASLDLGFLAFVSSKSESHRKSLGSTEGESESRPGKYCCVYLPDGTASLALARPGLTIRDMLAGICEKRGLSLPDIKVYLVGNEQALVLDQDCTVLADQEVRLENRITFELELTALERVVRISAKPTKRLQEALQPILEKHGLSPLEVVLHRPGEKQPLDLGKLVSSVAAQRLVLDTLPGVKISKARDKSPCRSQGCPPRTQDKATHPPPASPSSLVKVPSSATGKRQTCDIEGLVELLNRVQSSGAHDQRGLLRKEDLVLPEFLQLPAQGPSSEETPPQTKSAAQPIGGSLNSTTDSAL
UniProt Q96GF1: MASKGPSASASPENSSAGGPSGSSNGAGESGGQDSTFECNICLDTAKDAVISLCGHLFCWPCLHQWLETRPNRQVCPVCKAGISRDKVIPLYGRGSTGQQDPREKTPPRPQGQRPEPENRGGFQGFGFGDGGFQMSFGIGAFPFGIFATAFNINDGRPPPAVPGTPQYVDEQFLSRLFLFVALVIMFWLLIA
UniProt Q92546: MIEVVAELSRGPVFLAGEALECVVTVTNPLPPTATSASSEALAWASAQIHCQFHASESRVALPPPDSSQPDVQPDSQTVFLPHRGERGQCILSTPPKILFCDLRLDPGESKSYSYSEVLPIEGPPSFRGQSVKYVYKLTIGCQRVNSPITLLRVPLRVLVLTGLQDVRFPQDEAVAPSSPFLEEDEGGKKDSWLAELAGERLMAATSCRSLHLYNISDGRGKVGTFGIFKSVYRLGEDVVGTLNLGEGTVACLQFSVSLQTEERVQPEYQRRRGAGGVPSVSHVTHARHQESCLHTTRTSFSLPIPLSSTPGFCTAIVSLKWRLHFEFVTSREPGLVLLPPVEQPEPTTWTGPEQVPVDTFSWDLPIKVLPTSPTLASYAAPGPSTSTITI
UniProt Q8WVD5: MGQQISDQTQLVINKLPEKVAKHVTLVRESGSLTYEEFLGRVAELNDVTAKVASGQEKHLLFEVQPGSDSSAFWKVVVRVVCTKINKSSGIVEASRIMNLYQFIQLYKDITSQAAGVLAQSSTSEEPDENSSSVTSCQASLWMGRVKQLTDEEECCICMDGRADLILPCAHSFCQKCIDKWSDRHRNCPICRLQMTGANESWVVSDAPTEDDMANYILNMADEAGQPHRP

compound: CNC(=O)c1ccc(Nc2ncc(C(F)(F)F)c(NCc3nccnc3N(C)S(C)(=O)=O)n2)cc1 [defactinib]; experiment: log2 fold change, soluble protein after heating vs DMSO (PISA); higher = thermal stabilisation; K562 cells, 10 uM, 30 min; active = over 0.2 and 3.5 SD of the protein, either way, in both replicates (recomputed)
Procedure, shortened: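 K562 cells at 2×10^6 cells/mL were exposed to 10 μM compound for 30 min, then aliquots were heated for 3 min across 48°C-58°C, pooled, and extracted in PBS containing 0.5% NP-40 at 4°C. The supernatant after 21,000xg for 90 min was taken as soluble protein and measured by TMTpro 16plex LC-MS/MS with channel sums equalised. Thermal stability is reported relative to control samples, with values from duplicates. Fold changes are given on a log2 scale.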

Target	log2 fold change
RMDN2 isoform 2 (UniProt Q96LZ7)	inactive: -0.218
RFWD3 (UniProt Q6PCD5)	inactive: 0.216
RNF24 isoform 2 (UniProt Q9Y225)	inactive: -0.098
RGN (UniProt Q15493)	inactive: 0.137
RNF139 (UniProt Q8WU17)	inactive: -0.04
RING1 (UniProt Q06587)	inactive: -0.226
RECQL5 (UniProt O94762)	inactive: -0.111
RNASE4 (UniProt P34096)	inactive: 0.066
RNF170 (UniProt Q96K19)	inactive: -0.166
RGS14 (UniProt O43566)	inactive: 0.118
RNF185 (UniProt Q96GF1)	inactive: -0.023
RGP1 (UniProt Q92546)	inactive: -0.001
RNF141 (UniProt Q8WVD5)	inactive: -0.028

2 entries drawn at random from the list so far:
Target	log2 fold change
RECQL5 (UniProt O94762)	inactive: -0.111
RNF141 (UniProt Q8WVD5)	inactive: -0.028
